Assay results reported in US20050250821A1, “Quaternary ammonium compounds in the treatment of water and as antimicrobial wash” (priority 2004, published 2005).

What was measured:
[1] = system: Salmonella Enteritidis (ATCC 13076); assay: microbe, parasite or virus in culture
Description: (§1) A Petroff Hausser counting chamber was used to determine the level of inoculum.
(§2) An Optimax microtiter plate reader (Molecular Devices, Sunnyvale, Calif.) at 405 nm wavelength was used to measure the optical density of the suspension in each well. Plates were read kinetically over 24 h. The temperature was maintained at 35° C. All results reflect the average optical density measurements of four microtiter wells. […] A 100 μl aliquot of test organism and a 100 μl aliquot of experimental treatment were dispensed into individual microtiter plate wells.

[2] = system: Candida castellii (field strain); assay: microbe, parasite or virus in culture
Description: as §1, §2

[3] = system: Aspergillus; assay: microbe, parasite or virus in culture; conditions: for Inhibition (% of control): 72 h
Description: as §1

[4] = system: Fusarium; assay: microbe, parasite or virus in culture; conditions: for Inhibition (% of control): 72 h
Description: as §1

[5] = system: Staphylococcus aureus (ATCC 25923); conditions: S. aureus
Description: as §1, §2

Q: Which “growth inhibition” value ([1]; S. Enteritidis, 2.5 ppm CPC alone) does the source give for `CCCCCCCCCCCCCCCC[n+]1ccccc1` [CPC, Cetylpyridinium chloride] here?
A: did not inhibit

Q: And the MIC ([1]; Salmonella enterica, ATCC13076|ENTERITIDIS, 24 h, read-out: Minimum Inhibitory Concentration (MIC))?
A: 10 µg/mL

Q: What about the “concentration giving complete growth inhibition” value ([2]; C. castellii, previous experiments) of the same compound?
A: 100 ppm

Q: What about the MIC ([2]; Oligophagozyma castellii, read-out: MIC required for complete inhibition) of the same compound?
A: > 25 µg/mL

Q: And the “Inhibition (% of control)” value ([3]; 500 ppm CPC)?
A: 57.2 % of control

Q: And the “Inhibition (% of control)” value ([3]; 1000 ppm CPC)?
A: 100.0 % of control

Q: What about the “Inhibition (% of control)” value ([3]; 1500 ppm CPC) of the same compound?
A: 100.0 % of control

Q: What about the MIC ([3]; read-out: MIC level) of the same compound?
A: < 1000 µg/mL

Q: And the MIC [4]?
A: > 1500 µg/mL

Q: And the “Inhibition (% of control)” value ([4]; 500 ppm CPC)?
A: 61.0 % of control

Q: What about the “Inhibition (% of control)” value ([4]; 1000 ppm CPC) of the same compound?
A: 64.3 % of control

Q: What about the “Inhibition (% of control)” value ([4]; 1500 ppm CPC) of the same compound?
A: 69.0 % of control

Q: What about the “growth inhibition” value ([5]; 2.5 ppm CPC alone) of the same compound?
A: did not inhibit

Q: And the “duration of growth inhibition” value ([5]; 2.5 ppm treatment level)?
A: 8 h

Q: And the “concentration that completely inhibited growth” value ([5]; FIG. 2)?
A: 10 ppm
